In article PMC4420602:

T1: DJ1 (rat (endogenous in Sprague-Dawley rat liver)) (UniProt O88767)
T1 sequence: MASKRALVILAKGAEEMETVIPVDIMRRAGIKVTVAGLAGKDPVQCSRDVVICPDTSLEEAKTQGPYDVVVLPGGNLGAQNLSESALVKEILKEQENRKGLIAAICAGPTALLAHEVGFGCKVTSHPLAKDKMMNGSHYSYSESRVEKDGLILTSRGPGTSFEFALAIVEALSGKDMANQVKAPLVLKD

B1: carbonic anhydrase 3 (protein, UniProt P14141 1-260)
chain: MAKEWGYASHNGPEHWHELYPIAKGDNQSPIELHTKDIRHDPSLQPWSVSYDPGSAKTILNNGKTCRVVFDDTFDRSMLRGGPLSGPYRLRQFHLHWGSSDDHGSEHTVDGVKYAAELHLVHWNPKYNTFGEALKQPDGIAVVGIFLKIGREKGEFQILLDALDKIKTKGKEAPFNHFDPSCLFPACRDYWTYHGSFTTPPCEECIVWLLLKEPMTVSSDQMAKLRSLFASAENEPPVPLVGNWRPPQPIKGRVVRASFK
B2: carbamoyl-phosphate synthase (protein, UniProt P07756 39-1500)
chain: LSVKAQTAHIVLEDGTKMKGYSFGHPSSVAGEVVFNTGLGGYSEALTDPAYKGQILTMANPIIGNGGAPDTTARDELGLNKYMESDGIKVAGLLVLNYSHDYNHWLATKSLGQWLQEEKVPAIYGVDTRMLTKIIRDKGTMLGKIEFEGQSVDFVDPNKQNLIAEVSTKDVKVFGKGNPTKVVAVDCGIKNNVIRLLVKRGAEVHLVPWNHDFTQMDYDGLLIAGGPGNPALAQPLIQNVKKILESDRKEPLFGISTGNIITGLAAGAKSYKMSMANRGQNQPVLNITNRQAFITAQNHGYALDNTLPAGWKPLFVNVNDQTNEGIMHESKPFFAVQFHPEVSPGPTDTEYLFDSFFSLIKKGKGTTITSVLPKPALVASRVEVSKVLILGSGGLSIGQAGEFDYSGSQAVKAMKEENVKTVLMNPNIASVQTNEVGLKQADAVYFLPITPQFVTEVIKAERPDGLILGMGGQTALNCGVELFKRGVLKEYGVKVLGTSVESIMATEDRQLFSDKLNEINEKIAPSFAVESMEDALKAADTIGYPVMIRSAYALGGLGSGICPNKETLMDLGTKAFAMTNQILVERSVTGWKEIEYEVVRDADDNCVTVCNMENVDAMGVHTGDSVVVAPAQTLSNAEFQMLRRTSINVVRHLGIVGECNIQFALHPTSMEYCIIEVNARLSRSSALASKATGYPLAFIAAKIALGIPLPEIKNVVSGKTSACFEPSLDYMVTKIPRWDLDRFHGTSSRIGSSMKSVGEVMAIGRTFEESFQKALRMCHPSVDGFTPRLPMNKEWPANLDLRKELSEPSSTRIYAIAKALENNMSLDEIVKLTSIDKWFLYKMRDILNMDKTLKGLNSESVTEETLRQAKEIGFSDKQISKCLGLTEAQTRELRLKKNIHPWVKQIDTLAAEYPSVTNYLYVTYNGQEHDIKFDEHGIMVLGCGPYHIGSSVEFDWCAVSSIRTLRQLGKKTVVVNCNPETVSTDFDECDKLYFEELSLERILDIYHQEACNGCIISVGGQIPNNLAVPLYKNGVKIMGTSPLQIDRAEDRSIFSAVLDELKVAQAPWKAVNTLNEALEFANSVGYPCLLRPSYVLSGSAMNVVFSEDEMKRFLEEATRVSQEHPVVLTKFIEGAREVEMDAVGKEGRVISHAISEHVEDAGVHSGDATLMLPTQTISQGAIEKVKDATRKIAKAFAISGPFNVQFLVKGNDVLVIECNLRASRSFPFVSKTLGVDFIDVATKVMIGESVDEKHLPTLEQPIIPSDYVAIKAPMFSWPRLRDADPILRCEMASTGEVACFGEGIHTAFLKAMLSTGFKIPQKGILIGIQQSFRPRFLGVAEQLHNEGFKLFATEATSDWLNANNVPATPVAWPSQEGQNPSLSSIRKLIRDGSIDLVINLPNNNTKFVHDNYVIRRTAVDSGIALLTNFQVTKLFAEAVQKARTVDSKSLFHYRQYSAGKAA
B3: betaine-homocysteine S-methyl transferase (protein, UniProt O09171 1-407)
chain: MAPIAGKKAKRGILERLNAGEVVIGDGGFVFALEKRGYVKAGPWTPEAAVEHPEAVRQLHREFLRAGSNVMQTFTFYASEDKLENRGNYVAEKISGQKVNEAACDIARQVADEGDALVAGGVSQTPSYLSCKSETEVKKIFHQQLEVFMKKNVDFLIAEYFEHVEEAVWAVEALKTSGKPIAATMCIGPEGDLHGVSPGECAVRLVKAGAAIVGVNCHFDPSTSLQTIKLMKEGLEAARLKAYLMSHALAYHTPDCGKQGFIDLPEFPFGLEPRVATRWDIQKYAREAYNLGVRYIGGCCGFEPYHIRAIAEELAPERGFLPPASEKHGSWGSGLDMHTKPWIRARARKEYWQNLRIASGRPYNPSMSKPDAWGVTKGAAELMQQKEATTEQQLRALFEKQKFKSAQ

Target: T1, DJ1 (rat (endogenous in Sprague-Dawley rat liver))
Experiment: affinity purification with mass spectrometry; co-IP with anti-DJ1 antibody and protein A/G PLUS agarose from rat liver lysates (pooled sample of six rats per group; male and female, control and STZ-induced diabetic), 4°C, beads washed three times with RIPA buffer; 10% SDS-PAGE, silver staining, excised bands identified by peptide mass fingerprinting (MALDI-TOF, MASCOT); control rabbit and rat IgGs as negative control

Molecule	binding
stress 70 protein	binds
glutathione S-transferase	binds
B1	binds
B2	binds
B3	binds

These are yes or no findings as the source states them, for the method shown. In cells and extracts the contact can be indirect. These calls come from enrichment with a bait or labelling near it, and not all partners need be listed.
